Test results reported in the supplement of paper PMC4604168 (melanoma cell lines).
The other results are listed elsewhere or left out. Single values are uncertain, as repeats are few or missing.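 Cells were imaged in 1,536-well plates, and nuclei stained with an antibody against cleaved PARP were counted against all DNA-stained nuclei to give the apoptosis fraction. Screening doses were chosen to leave most cells alive, and resting and induced cleaved-PARP levels differ strongly between cell lines.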

Assays:
Assay in all cases: cleaved PARP positive nuclei fraction relative to DMSO control; melanoma cells; higher = more apoptosis
Settings in all cases: library dose: low library concentration; 72 h
501Mel = tested on: 501Mel
A101D = tested on: A101D
A2058 = tested on: A2058
A375 = tested on: A375
C32 = tested on: C32
CBRC008 = tested on: CBRC008 (line from a melanoma biopsy)
CBRC014 = tested on: CBRC014 (line from a melanoma biopsy)
CBRC016 = tested on: CBRC016 (line from a melanoma biopsy)
CBRC017 = tested on: CBRC017 (line from a melanoma biopsy)
CBRC034 = tested on: CBRC034 (line from a melanoma biopsy)
COLO792 = tested on: COLO792
COLO800 = tested on: COLO800
COLO829 = tested on: COLO829
G361 = tested on: G361
IPC-298 = tested on: IPC-298
IST-MEL1 = tested on: IST-MEL1
LB2518-MEL = tested on: LB2518-MEL
LOXIMVI = tested on: LOXIMVI
MEL-HO = tested on: MEL-HO

Row | SMILES | cleaved PARP positive nuclei fraction (501Mel) | cleaved PARP positive nuclei fraction (A101D) | cleaved PARP positive nuclei fraction (A2058) | cleaved PARP positive nuclei fraction (A375) | cleaved PARP positive nuclei fraction (C32) | cleaved PARP positive nuclei fraction (CBRC008) | cleaved PARP positive nuclei fraction (CBRC014) | cleaved PARP positive nuclei fraction (CBRC016) | cleaved PARP positive nuclei fraction (CBRC017) | cleaved PARP positive nuclei fraction (CBRC034) | cleaved PARP positive nuclei fraction (COLO792) | cleaved PARP positive nuclei fraction (COLO800) | cleaved PARP positive nuclei fraction (COLO829) | cleaved PARP positive nuclei fraction (G361) | cleaved PARP positive nuclei fraction (IPC-298) | cleaved PARP positive nuclei fraction (IST-MEL1) | cleaved PARP positive nuclei fraction (LB2518-MEL) | cleaved PARP positive nuclei fraction (LOXIMVI) | cleaved PARP positive nuclei fraction (MEL-HO)
1 | O=C(O)[C@@H]1[O][Sb](=[O])([O][Sb]2(=[O])[O][C@H]([C@H](O)CO)[C@H](O)[C@H](C(=O)O)[O]2)[O][C@H]([C@H](O)CO)[C@@H]1O (some centres undefined) [stibogluconate] + C=C(c1ccc(C(=O)O)cc1)c1cc2c(cc1C)C(C)(C)CCC2(C)C [Bexarotene] (first compound 2 µM, partner dose 2 µM) | 123% | 93.8% | 106% | 132% | 81.6% | 96.2% | 106% | 137% | 126% | 60.8% | 105% | 67.7% | 44.3% | 183% | 119% | 69.2% | 99.1% | 96.6% | 112%
2 | Nc1ccn([C@@H]2O[C@H](CO)[C@@H](O)C2(F)F)c(=O)n1 [gemcitabine] + COc1ccc(Cl)c(Nc2nc3ccccc3nc2NS(=O)(=O)c2cccc(NC(=O)C(C)(C)N)c2)c1 [XL147] (first compound 0.0004 µM, partner dose 0.8 µM) | 90.9% | 85.8% | 100% | 73.4% | 80.4% | 54.6% | 143% | 164% | 127% | 126% | 34.2% | 149% | 133% | 158% | 95.9% | 126% | 53.6% | 303% | 61.3%
3 | C=C(c1ccc(C(=O)O)cc1)c1cc2c(cc1C)C(C)(C)CCC2(C)C [Bexarotene] + CCCS(=O)(=O)Nc1ccc(F)c(C(=O)c2c[nH]c3ncc(Cl)cc23)c1F [PLX4720] (first compound 2 µM, partner dose 0.08 µM) | 101% | 159% | 47.8% | 102% | 76.8% | 264% | 111% | 391% | 207% | 69.8% | 177% | 151% | 61.9% | 110% | 88.8% | 135% | 92.6% | 28.2% | 136%
4 | CS(=O)(=O)CCNCc1ccc(-c2ccc3ncnc(Nc4ccc(OCc5cccc(F)c5)c(Cl)c4)c3c2)o1 [lapatinib] + C=C(c1ccc(C(=O)O)cc1)c1cc2c(cc1C)C(C)(C)CCC2(C)C [Bexarotene] (first compound 0.8 µM, partner dose 2 µM) | 75.2% | 165% | 204% | 104% | 85.6% | 150% | 297% | 174% | 300% | 81% | 137% | 113% | 89.5% | 183% | 85.9% | 29.8% | 336% | 121% | 60.5%
5 | CNC(=O)c1cc(Oc2ccc(NC(=O)Nc3ccc(Cl)c(C(F)(F)F)c3)cc2)ccn1 [sorafenib] + OCc1c[nH]c2ccccc12 [Indole-3-carbinol] (first compound 0.4 µM, partner dose 0.8 µM) | 81.7% | 48.1% | 117% | 79.5% | 156% | 367% | 108% | 68.8% | 112% | 84.2% | 44.1% | 78.1% | 109% | 129% | 292% | 74.4% | 106% | 106% | 32.5%
6 | Cc1cc(Nc2cc(N3CCN(C)CC3)nc(/C=C/c3ccccc3)n2)n[nH]1 + COc1ccc(Cl)c(Nc2nc3ccccc3nc2NS(=O)(=O)c2cccc(NC(=O)C(C)(C)N)c2)c1 [XL147] (first compound 0.04 µM, partner dose 0.8 µM) | 114% | 138% | 82.1% | 107% | 85.9% | 212% | 89.8% | 254% | 109% | 354% | 115% | 126% | 115% | 119% | 366% | 69.2% | 220% | 61.3% | 64.4%
7 | CN1CCN(c2ccc3nc(-c4c(N)c5c(F)cccc5[nH]c4=O)[nH]c3c2)CC1 [Dovitinib] + Nc1cccc2c1CN(C1CCC(=O)NC1=O)C2=O [lenalidomide] (first compound 0.1 µM, partner dose 1 µM) | 234% | 172% | 160% | 210% | 69.2% | 101% | 78.9% | 46% | 111% | 120% | 112% | 113% | 154% | 168% | 43.9% | 119% | 125% | 142% | 103%
8 | CO[C@H]1C[C@@H]2CC[C@@H](C)[C@@](O)(O2)C(=O)C(=O)N2CCCC[C@H]2C(=O)O[C@H]([C@H](C)C[C@@H]2CC[C@@H](OCCO)[C@H](OC)C2)CC(=O)[C@H](C)/C=C(\C)[C@@H](O)[C@@H](OC)C(=O)[C@H](C)C[C@H](C)/C=C/C=C/C=C/1C [everolimus] + CC(=O)c1c(C)c2cnc(Nc3ccc(N4CCNCC4)cn3)nc2n(C2CCCC2)c1=O [palbociclib] (first compound 0.02 µM, partner dose 0.04 µM) | 194% | 245% | 65.2% | 1070% | 80.3% | 32.1% | 104% | 92.5% | 118% | 39.3% | 238% | 137% | 174% | 244% | 24.8% | 173% | 73.7% | 192% | 89.5%
9 | CNC(=O)c1cc(Oc2ccc(NC(=O)Nc3ccc(Cl)c(C(F)(F)F)c3)cc2)ccn1 [sorafenib] + Nc1cccc2c1CN(C1CCC(=O)NC1=O)C2=O [lenalidomide] (first compound 0.4 µM, partner dose 1 µM) | 98.6% | 88% | 55.2% | 190% | 169% | 56.5% | 97.7% | 147% | 99.5% | 167% | 102% | 71.8% | 78% | 136% | 130% | 87.5% | 105% | 132% | 59.3%
10 | Nc1ccn([C@@H]2O[C@H](CO)[C@@H](O)C2(F)F)c(=O)n1 [gemcitabine] + Cn1nnc2c(C(N)=O)ncn2c1=O [temozolomide] (first compound 0.0004 µM, partner dose 2 µM) | 71.3% | 194% | 188% | 132% | 73.4% | 200% | 165% | 111% | 143% | 87.9% | 50% | 87.5% | 193% | 112% | 99.9% | 81.3% | 122% | 220% | 76.3%
11 | CS(=O)(=O)CCNCc1ccc(-c2ccc3ncnc(Nc4ccc(OCc5cccc(F)c5)c(Cl)c4)c3c2)o1 [lapatinib] + CCCS(=O)(=O)Nc1ccc(F)c(C(=O)c2c[nH]c3ncc(Cl)cc23)c1F [PLX4720] (first compound 0.8 µM, partner dose 0.08 µM) | 87.6% | 51.3% | 92.7% | 160% | 141% | 228% | 127% | 49.8% | 104% | 53.4% | 148% | 116% | 65.6% | 154% | 46.5% | 180% | 82.1% | 115% | 61.4%
12 | C=C(c1ccc(C(=O)O)cc1)c1cc2c(cc1C)C(C)(C)CCC2(C)C [Bexarotene] + CC(=O)c1c(C)c2cnc(Nc3ccc(N4CCNCC4)cn3)nc2n(C2CCCC2)c1=O [palbociclib] (first compound 2 µM, partner dose 0.04 µM) | 197% | 126% | 64.1% | 161% | 113% | 236% | 119% | 190% | 341% | 229% | 150% | 35.2% | 121% | 108% | 270% | 75.9% | 194% | 120% | 32.2%
13 | C[C@@H](Oc1cc(-c2cnn(C3CCNCC3)c2)cnc1N)c1c(Cl)ccc(F)c1Cl [Crizotinib] + C[C@]1(c2nc3c(C(N)=O)cccc3[nH]2)CCCN1 [Veliparib] (first compound 0.2 µM, partner dose 1.4 µM) | 139% | 57.7% | 261% | 171% | 78.7% | 96.8% | 97.3% | 21% | 88.7% | 63.7% | 116% | 292% | 169% | 97.9% | 333% | 84.8% | 78.6% | 149% | 134%
14 | CNC(=O)c1cc(Oc2ccc(NC(=O)Nc3ccc(Cl)c(C(F)(F)F)c3)cc2)ccn1 [sorafenib] + Cc1nc(Nc2ncc(C(=O)Nc3c(C)cccc3Cl)s2)cc(N2CCN(CCO)CC2)n1 [dasatanib] (first compound 0.4 µM, partner dose 0.004 µM) | 102% | 231% | 159% | 122% | 171% | 187% | 105% | 96.1% | 111% | 99.8% | 128% | 103% | 47.2% | 37.2% | 197% | 71.9% | 46.6% | 77.1% | 76.1%
15 | Nc1ccn([C@@H]2O[C@H](CO)[C@@H](O)C2(F)F)c(=O)n1 [gemcitabine] + Nc1cccc2c1CN(C1CCC(=O)NC1=O)C2=O [lenalidomide] (first compound 0.0004 µM, partner dose 1 µM) | 98.6% | 148% | 124% | 94.7% | 139% | 185% | 241% | 93.6% | 154% | 160% | 39.1% | 285% | 220% | 238% | 50.2% | 209% | 110% | 27.8% | 77.7%
16 | CO[C@H]1C[C@@H]2CC[C@@H](C)[C@@](O)(O2)C(=O)C(=O)N2CCCC[C@H]2C(=O)O[C@H]([C@H](C)C[C@@H]2CC[C@@H](OCCO)[C@H](OC)C2)CC(=O)[C@H](C)/C=C(\C)[C@@H](O)[C@@H](OC)C(=O)[C@H](C)C[C@H](C)/C=C/C=C/C=C/1C [everolimus] + Nc1ccn([C@@H]2O[C@H](CO)[C@@H](O)C2(F)F)c(=O)n1 [gemcitabine] (first compound 0.02 µM, partner dose 0.0004 µM) | 504% | 78.6% | 207% | 975% | 80.5% | 133% | 174% | 214% | 131% | 212% | 113% | 84.1% | 116% | 163% | 47% | 213% | 267% | 94.7% | 138%

Taken from above.
In cleaved PARP positive nuclei fraction (LB2518-MEL), Nc1ccn([C@@H]2O[C@H](CO)[C@@H](O)C2(F)F)c(=O)n1 [gemcitabine] + COc1ccc(Cl)c(Nc2nc3ccccc3nc2NS(=O)(=O)c2cccc(NC(=O)C(C)(C)N)c2)c1 [XL147] (first compound 0.0004 µM, partner dose 0.8 µM) has the entry 53.6%
In cleaved PARP positive nuclei fraction (MEL-HO), C=C(c1ccc(C(=O)O)cc1)c1cc2c(cc1C)C(C)(C)CCC2(C)C [Bexarotene] + CC(=O)c1c(C)c2cnc(Nc3ccc(N4CCNCC4)cn3)nc2n(C2CCCC2)c1=O [palbociclib] (first compound 2 µM, partner dose 0.04 µM) has the entry 32.2%
